# Source: the supplement of paper PMC8728848
# The list shows a part of the results.
# B1: Actd5 (Actinidia), P84527 (protein)
# chain: ISSCNGPCRDLNDCDGQLICIKGKCNDDPQVGTHICRGTTHSHQPGGCKPSGTLTCRGKSYPTYDCSPPVTSSTPAKLTNNDFSEGGDDGGPSECDESYHNNNERIVALSTGWYNGGSRCGKMIRITASNGKSVSAKVVDECDSRHGCDKEHAGQPPCRNNIVDGSNAVWSALGLDKNVGVVDITWSMA
# Legend:
# Assay in all cases: glycan array binding signal (z-score within array); higher = stronger binding
# Conditions in all cases: glycan notation: IUPAC condensed, linker removed
# [1] = molecular target: Gal(b1-4)GalNAc(b1-3)[Fuc(a1-2)]Gal(b1-4)GlcNAc
# Method in brief: (§1)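 The Consortium for Functional Glycomics database supplied 3228 glycan arrays, of which those lacking an available protein sequence were dropped. The binding signal, a within-array Z-score, was averaged across arrays of the same protein sequence and across linkers. Negative scores can be read as non-binding.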
# Gal(b1-4)Glc = molecular target: Gal(b1-4)Glc
# Method in brief: as §1
# Gal(b1-4)Glc6S = molecular target: Gal(b1-4)Glc6S
# Method in brief: as §1
# Gal(b1-4)GlcNAc = molecular target: Gal(b1-4)GlcNAc
# Method in brief: as §1
# [2] = molecular target: Gal(b1-4)GlcNAc(a1-6)Gal(b1-4)GlcNAc
# Method in brief: as §1
# Gal(b1-4)GlcNAc(b1-2)Man = molecular target: Gal(b1-4)GlcNAc(b1-2)Man
# Method in brief: as §1
# [3] = molecular target: Gal(b1-4)GlcNAc(b1-2)Man(a1-3)Man(b1-4)GlcNAc(b1-4)GlcNAc
# Method in brief: as §1
# [4] = molecular target: Gal(b1-4)GlcNAc(b1-2)Man(a1-3)[Gal(b1-4)GlcNAc(b1-2)Man(a1-6)]Man(b1-4)GlcNAc(b1-4)GlcNAc
# Method in brief: as §1
# [5] = molecular target: Gal(b1-4)GlcNAc(b1-2)Man(a1-3)[Gal(b1-4)GlcNAc(b1-2)Man(a1-6)]Man(b1-4)GlcNAc(b1-4)[Fuc(a1-6)]GlcNAc
# Method in brief: as §1
# [6] = molecular target: Gal(b1-4)GlcNAc(b1-2)Man(a1-3)[Gal(b1-4)GlcNAc(b1-2)Man(a1-6)][Gal(b1-4)GlcNAc(b1-4)]Man(b1-4)GlcNAc(b1-4)[Fuc(a1-6)]GlcNAc
# Method in brief: as §1
# [7] = molecular target: Gal(b1-4)GlcNAc(b1-2)Man(a1-3)[Gal(b1-4)GlcNAc(b1-2)Man(a1-6)][GlcNAc(b1-4)]Man(b1-4)GlcNAc(b1-4)[Fuc(a1-6)]GlcNAc
# Method in brief: as §1
# [8] = molecular target: Gal(b1-4)GlcNAc(b1-2)Man(a1-3)[GlcNAc(b1-2)Man(a1-6)]Man(b1-4)GlcNAc(b1-4)GlcNAc
# Method in brief: as §1
# [9] = molecular target: Gal(b1-4)GlcNAc(b1-2)Man(a1-3)[GlcNAc(b1-4)][Gal(b1-4)GlcNAc(b1-2)Man(a1-6)]Man(b1-4)GlcNAc(b1-4)GlcNAc
# Method in brief: as §1
# [10] = molecular target: Gal(b1-4)GlcNAc(b1-2)Man(a1-3)[Man(a1-6)]Man(b1-4)GlcNAc(b1-4)GlcNAc
# Method in brief: as §1
# [11] = molecular target: Gal(b1-4)GlcNAc(b1-2)Man(a1-6)Man(b1-4)GlcNAc(b1-4)GlcNAc
# Method in brief: as §1
# [12] = molecular target: Gal(b1-4)GlcNAc(b1-2)Man(a1-6)[GlcNAc(b1-2)Man(a1-3)]Man(b1-4)GlcNAc(b1-4)GlcNAc
# Method in brief: as §1
# [13] = molecular target: Gal(b1-4)GlcNAc(b1-2)Man(a1-6)[Man(a1-3)]Man(b1-4)GlcNAc(b1-4)GlcNAc
# Method in brief: as §1
# [14] = molecular target: Gal(b1-4)GlcNAc(b1-2)[Gal(b1-4)GlcNAc(b1-4)]Man(a1-3)[Gal(b1-4)GlcNAc(b1-2)Man(a1-6)]Man(b1-4)GlcNAc(b1-4)GlcNAc
# Method in brief: as §1
# [15] = molecular target: Gal(b1-4)GlcNAc(b1-2)[Gal(b1-4)GlcNAc(b1-4)]Man(a1-3)[Gal(b1-4)GlcNAc(b1-2)[Gal(b1-4)GlcNAc(b1-6)]Man(a1-6)]Man(b1-4)GlcNAc(b1-4)GlcNAc
# Method in brief: as §1
# [16] = molecular target: Gal(b1-4)GlcNAc(b1-2)[Gal(b1-4)GlcNAc(b1-4)]Man(a1-3)[GlcNAc(b1-4)][Gal(b1-4)GlcNAc(b1-2)Man(a1-6)]Man(b1-4)GlcNAc(b1-4)GlcNAc
# Method in brief: as §1
# [17] = molecular target: Gal(b1-4)GlcNAc(b1-2)[Gal(b1-4)GlcNAc(b1-4)]Man(a1-3)[GlcNAc(b1-4)][Gal(b1-4)GlcNAc(b1-2)[Gal(b1-4)GlcNAc(b1-6)]Man(a1-6)]Man(b1-4)GlcNAc(b1-4)GlcNAc
# Method in brief: as §1
# [18] = molecular target: Gal(b1-4)GlcNAc(b1-2)[Gal(b1-4)GlcNAc(b1-6)]Man(a1-6)[Gal(b1-4)GlcNAc(b1-2)Man(a1-3)]Man(b1-4)GlcNAc(b1-4)GlcNAc
# Method in brief: as §1
binder,measurement,setting,value
B1,glycan array binding signal (z-score),[1],1.16
same,glycan array binding signal (z-score),Gal(b1-4)Glc,0.034
same,glycan array binding signal (z-score),Gal(b1-4)Glc6S,0.117
same,glycan array binding signal (z-score),Gal(b1-4)GlcNAc,-0.447
same,glycan array binding signal (z-score),[2],-0.614
same,glycan array binding signal (z-score),Gal(b1-4)GlcNAc(b1-2)Man,0.139
same,glycan array binding signal (z-score),[3],-0.365
same,glycan array binding signal (z-score),[4],-1.48
same,glycan array binding signal (z-score),[5],1.05
same,glycan array binding signal (z-score),[6],-0.365
same,glycan array binding signal (z-score),[7],-0.621
same,glycan array binding signal (z-score),[8],-0.899
same,glycan array binding signal (z-score),[9],-0.11
same,glycan array binding signal (z-score),[10],0.717
same,glycan array binding signal (z-score),[11],-0.655
same,glycan array binding signal (z-score),[12],-1.01
same,glycan array binding signal (z-score),[13],0.245
same,glycan array binding signal (z-score),[14],0.256
same,glycan array binding signal (z-score),[15],-0.276
same,glycan array binding signal (z-score),[16],0.95
same,glycan array binding signal (z-score),[17],-0.201
same,glycan array binding signal (z-score),[18],-0.602

# Shown as tab-separated lines: part of the list above.
binder	measurement	setting	value
B1	glycan array binding signal (z-score)	[8]	-0.899
same	glycan array binding signal (z-score)	[9]	-0.11
